The text below walks through data of publication PMC10403950.

No constants are given. Whether binding was seen depends on the method and setting. In cells and extracts the contact can be indirect. Here binding means that the protein was enriched with, or labelled near, the bait; the list need not be complete. Sequences can lack the tags named with a protein.

The assay addresses T1, FLAG-tagged TMIGD1 (transmembrane and immunoglobulin domain-containing protein 1) (UniProt Q6UXZ0).
T1 sequence: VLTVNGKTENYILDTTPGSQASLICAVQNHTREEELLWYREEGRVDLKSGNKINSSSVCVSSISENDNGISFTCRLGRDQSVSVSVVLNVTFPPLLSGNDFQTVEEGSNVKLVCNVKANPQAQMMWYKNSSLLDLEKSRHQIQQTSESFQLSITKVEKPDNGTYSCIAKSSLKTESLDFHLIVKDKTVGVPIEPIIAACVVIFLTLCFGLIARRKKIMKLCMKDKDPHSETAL
As to the kind of experiment: affinity purification with mass spectrometry; anti-FLAG immunoprecipitate (control: anti-IgG) from lysates of NCM460 and Caco2 cells overexpressing FLAG-tagged TMIGD1; LC-MS/MS and proteomics analysis.

B1: BAF nuclear assembly factor 1 (BANF1) (protein, UniProt O75531 1-89)
chain: MTTSQKHRDFVAEPMGEKPVGSLAGIGEVLGKKLEERGFDKAYVVLGQFLVLKKDEDLFREWLKDTCGANAKQSRDCFGCLREWCDAFL
Regarding B1, the binding entry was “binds”.
